This is one part of the list. Many values rest on one well or one pass, so single values are uncertain.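 Imaging used 1,536-well plates; nuclei positive for cleaved PARP by antibody were divided by total DNA-stained nuclei to yield the apoptosis fraction. Doses for screening kept most cells viable, and cell lines differ markedly in resting and induced cleaved-PARP levels.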
What was measured:
Experiment in all cases: cleaved PARP positive nuclei fraction relative to DMSO control; melanoma cells; higher = more apoptosis
Details in all cases: library dose: low library concentration; 72 h
MZ2-MEL = test system: MZ2-MEL
MeWo = test system: MeWo
RPMI7951 = test system: RPMI7951
RVH-421 = test system: RVH-421
SkMel28 = test system: SkMel28
SkMel2 = test system: SkMel2
SkMel30 = test system: SkMel30
SkMel5 = test system: SkMel5
UACC257 = test system: UACC257
UACC62 = test system: UACC62
WM115 = test system: WM115
WM1716 = test system: WM1716
WM1745 = test system: WM1745
WM3526 = test system: WM3526
WM3619 = test system: WM3619
WM451Lu = test system: WM451Lu

Row | Structure (SMILES) | cleaved PARP positive nuclei fraction (MZ2-MEL) [%] | cleaved PARP positive nuclei fraction (MeWo) [%] | cleaved PARP positive nuclei fraction (RPMI7951) [%] | cleaved PARP positive nuclei fraction (RVH-421) [%] | cleaved PARP positive nuclei fraction (SkMel28) [%] | cleaved PARP positive nuclei fraction (SkMel2) [%] | cleaved PARP positive nuclei fraction (SkMel30) [%] | cleaved PARP positive nuclei fraction (SkMel5) [%] | cleaved PARP positive nuclei fraction (UACC257) [%] | cleaved PARP positive nuclei fraction (UACC62) [%] | cleaved PARP positive nuclei fraction (WM115) [%] | cleaved PARP positive nuclei fraction (WM1716) [%] | cleaved PARP positive nuclei fraction (WM1745) [%] | cleaved PARP positive nuclei fraction (WM3526) [%] | cleaved PARP positive nuclei fraction (WM3619) [%] | cleaved PARP positive nuclei fraction (WM451Lu) [%]
1 | Nc1nc(F)nc2c1ncn2[C@@H]1O[C@H](CO)[C@@H](O)[C@@H]1O [fludarabine] + Cn1cc(/C=C2\C(=O)Nc3cccnc32)c2ccccc21 [GW441756] (first compound 0.2 µM, partner dose 0.4 µM) | 99.3 | 249 | 93.1 | 72 | 79.4 | 756 | 746 | 125 | 137 | 81.6 | 64.6 | 49.5 | 86.9 | 511 | 67.7 | 397
2 | Nc1ncn([C@H]2C[C@H](O)[C@@H](CO)O2)c(=O)n1 [decitabine] + Cc1cc(N2CCOCC2)cc2[nH]c(-c3c(NC[C@@H](O)c4cccc(Cl)c4)cc[nH]c3=O)nc12 [BMS536924] (first compound 0.1 µM, partner dose 0.2 µM) | 49.5 | 153 | 213 | 136 | 90.6 | 119 | 66.7 | 72.9 | 122 | 104 | 123 | 86.6 | 116 | 55.2 | 101 | 57.9
3 | Cc1cc(Nc2cc(N3CCN(C)CC3)nc(/C=C/c3ccccc3)n2)n[nH]1 + Cc1ccc(NC(=O)c2cccc(N(C)C)c2)cc1NC(=O)c1ccc(O)cc1 [ZM336372] (first compound 0.04 µM, partner dose 2 µM) | 274 | 155 | 59.2 | 157 | 630 | 123 | 28.6 | 175 | 284 | 240 | 143 | 183 | 116 | 75.9 | 97.3 | 157
4 | O=C(O)[C@@H]1[O][Sb](=[O])([O][Sb]2(=[O])[O][C@H]([C@H](O)CO)[C@H](O)[C@H](C(=O)O)[O]2)[O][C@H]([C@H](O)CO)[C@@H]1O (stereo not given in full) [stibogluconate] + O=C1NC(=O)/C(=C/c2ccc(-c3ccc(F)cc3O)o2)S1 [AS252424] (first compound 2 µM, partner dose 1 µM) | 135 | 106 | 207 | 120 | 116 | 80.9 | 37 | 69.6 | 345 | 306 | 146 | 107 | 202 | 232 | 97.7 | 48.1
5 | C=C(c1ccc(C(=O)O)cc1)c1cc2c(cc1C)C(C)(C)CCC2(C)C [Bexarotene] + Cn1cc(/C=C2\C(=O)Nc3cccnc32)c2ccccc21 [GW441756] (first compound 2 µM, partner dose 0.4 µM) | 106 | 40 | 192 | 133 | 94.8 | 50 | 84.4 | 189 | 187 | 82.3 | 88.9 | 123 | 84.4 | 354 | 91.4 | 89.2

From the supplement of paper PMC4604168 (melanoma cell lines)
